# Results taken from PubChem BioAssay AID2551 (National Center for Advancing Translational Sciences (NCATS), 2010).
# By UniProt entry, the sequences of proteins in these tests, tags left out. Where a name states a change or a piece, a line headed by the entry shows the natural chain unless it says otherwise.
# UniProt P51450: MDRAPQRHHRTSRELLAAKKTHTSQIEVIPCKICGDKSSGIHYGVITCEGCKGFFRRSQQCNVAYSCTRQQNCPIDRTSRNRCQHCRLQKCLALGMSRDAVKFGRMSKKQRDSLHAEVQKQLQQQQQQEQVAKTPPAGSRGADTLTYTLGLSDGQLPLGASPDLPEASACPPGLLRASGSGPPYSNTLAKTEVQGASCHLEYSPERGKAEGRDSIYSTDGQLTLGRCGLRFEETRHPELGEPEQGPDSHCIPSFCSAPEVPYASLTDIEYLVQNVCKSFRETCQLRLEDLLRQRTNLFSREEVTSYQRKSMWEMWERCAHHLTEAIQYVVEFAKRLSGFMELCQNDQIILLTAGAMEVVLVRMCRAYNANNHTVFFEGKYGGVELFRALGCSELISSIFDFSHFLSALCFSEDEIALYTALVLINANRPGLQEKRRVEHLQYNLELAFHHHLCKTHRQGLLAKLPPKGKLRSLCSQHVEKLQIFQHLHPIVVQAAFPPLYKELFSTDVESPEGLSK
# About 17,000 (5.5%) of roughly 310,000 compounds were called active. Inconclusive results, whose numbers are uncertain, are shown with a selection of clear calls. Calls come from the whole dose curve; as a rule, active = well fitted inhibition curve with a large enough effect; inconclusive = small, poorly fitted or top-dose-only effect, or effect the other way; inactive = no such curve, though single readings can be large or run the other way. A potency beside an inconclusive call is a rough fit, not a confirmed value.
# Target: Nuclear receptor ROR-gamma (Mus musculus) (UniProt P51450)
# Assay: qHTS for inhibitors of ROR gamma transcriptional activity; note: nearly all actives have a fitted effect of over 60% in size
# Settings: Drosophila S2 Gal4-RORgamma UAS-luciferase reporter, 20 h; activity change, negative = inhibition: at 53.6 µM (top of the series)
# Outline: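 A Gal4/UAS one-hybrid system in insect cells: metallothionein-promoter Gal4–ROR gamma fusion plus Photinus luciferase reporter. Copper sulfate 700 uM final, 20 hr ambient incubation, luminescent detection after 10 min with reagent.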
# % is set by controls: 0 for no effect and ±100 for the full control effect; potency is the fitted concentration of half-maximal effect.
Structure (SMILES),"activity change, negative = inhibition",Potency
C/C=C\C=C\C(=O)N1CC2(CC(c3cccc(NC(=O)COc4ccc(Cl)cc4)c3)=NO2)C[C@H]1C(N)=O (stereo not given in full),inactive: 44.3%,–
C=CCn1c(=NC(=O)c2cc(-c3cccs3)nc3ccccc23)sc2cc(S(N)(=O)=O)ccc21,–,"inconclusive: 17.8 µM [activator, partial curve]"
CCC1Oc2ccc(C)cc2N(CC(=O)NCCN2C(C)CCCC2C)C1=O (stereo not given),–,"inconclusive: 35.5 µM [inhibitor, single point]"
COc1ccccc1N1CCN(/N=C/c2cc(Br)ccc2F)CC1,–,"inconclusive: 15.8 µM [activator, single point]"
CC(C)CCNc1nc(N2CCCC2)c2c(c1C#N)CCN(C)C2,–,"inconclusive: 15.8 µM [inhibitor, single point]"
CC(C)Cc1cc(C(=O)Nc2cccc(O)c2)no1,–,"inconclusive: 7.94 µM [inhibitor, partial curve]"
COc1ccc2c(CC(=O)NCCN3C(=O)S/C(=C\c4cccnc4)C3=O)coc2c1,inactive: -33%,–
O=C(N/N=C/c1ccc(Br)s1)c1ccc([N+](=O)[O-])cc1,–,active: 0.447 µM
N/C(=N\OC(=O)c1ccccc1)c1ccccn1,–,active: 1.58 µM
Cc1ccc(COC(=O)Cc2coc3cc(O)ccc23)cc1,–,active: 5.62 µM
Nc1ccc2c(c1)C(=O)C(=O)c1ccccc1-2,–,active: 1.78 µM
Cc1ccc(N(CC(=O)NCc2ccc(F)cc2)C(=O)c2csnn2)cc1C,–,"inconclusive: 0.398 µM [activator, full curve]"
CCN(CC)C(=O)CCCSc1nnc(Nc2ccccc2F)s1,–,"inconclusive: 35.5 µM [inhibitor, single point]"
COc1cccc(OC)c1C(=O)NC(=S)NNC(=O)[C@H]1C[C@@H]1c1ccccc1,–,active: 3.98 µM
COc1cc(OC)c(/C=N/NC(=O)c2ccc([N+](=O)[O-])cc2)cc1Br,–,"inconclusive: 2.82 µM [inhibitor, full curve, poor fit]"
Cc1ccccc1Cn1c2ccccc2c2cnn(CC(=O)NCCCN3CCN(C)CC3)c(=O)c21,inactive: 0.505%,–
O=C(CCC1CCCCC1)Nc1nccs1,–,active: 17.8 µM
O=S(=O)(c1ccc(Cl)cc1)N1CCN=C1SCc1ccc(Cl)c(Cl)c1,–,"inconclusive: 8.91 µM [activator, partial curve]"
CCOc1ccc(NC(=O)CCNS(=O)(=O)c2cccs2)cc1,–,"inconclusive: 10 µM [activator, partial curve, poor fit]"
N/C(=N\NC(=O)c1cccc(F)c1)c1cc2ccccc2oc1=O,–,active: 1 µM
COc1ccccc1-c1nnc(SC(C(=O)c2c[nH]c3ccccc23)c2ccccc2)n1C (stereo not given),–,"inconclusive: 11.2 µM [activator, single point]"
Cc1ccc(Nc2nc(N)c3ccccc3n2)cc1C,–,"inconclusive: 22.4 µM [inhibitor, single point]"
O=C(Nc1cccc2ccccc12)N1N=CCC1c1ccccc1 (stereo not given),inactive: 16.1%,–
CCCOc1cccc(C(=O)NC(=S)Nc2cccc(C(F)(F)F)c2)c1,–,active: 10 µM

Structure (SMILES),"activity change, negative = inhibition",Potency
Cc1ccc(Sc2cc(C)nc(-c3ccccn3)n2)cc1,–,active: 0.355 µM
COc1cccc(Cn2c(=O)c(-c3cccs3)nc3cnc(N(C)C)nc32)c1,–,"inconclusive: 11.2 µM [inhibitor, single point]"
Cc1ccc(C(=O)COC(=O)C2C3C=CC(C3)C2C(=O)OCC(=O)c2ccc(C)c(C)c2)cc1C (stereo not given),–,"inconclusive: 2.82 µM [inhibitor, partial curve, poor fit]"
O=S(=O)(NCCc1ccccc1)c1ccc(-n2cnnn2)cc1,–,"inconclusive: 22.4 µM [activator, single point]"
Cc1cc(C)n2c(SCC(=O)Nc3c(C)n(C)n(-c4ccccc4)c3=O)nnc2n1,–,"inconclusive: 0.631 µM [inhibitor, single point]"
COc1ccc(C(=O)C(CN2CCCC2)c2ccccc2)cc1 (stereo not given),–,"inconclusive: 15.8 µM [inhibitor, single point]"
CCC(C)C(N)C(=O)NC(CC(N)=O)C(=O)NC(CC(C)C)C(=O)NC(CCCCN)C(=O)NC(C)C(=O)NC(CC(C)C)C(=O)NC(C)C(=O)NC(C)C(=O)NC(CC(C)C)C(=O)NC(C)C(=O)NC(CCCCN)C(=O)NC(CCCCN)C(=O)NC(C(=O)NC(CC(C)C)C(N)=O)C(C)CC (stereo not given),–,"inconclusive: 22.4 µM [inhibitor, single point]"
O=C(c1cc(-c2ccccc2)nc2ccccc12)N1CCN(c2ccccc2O)CC1,–,"inconclusive: 7.08 µM [activator, partial curve]"
Cc1cccc(-n2ncc3c(N(CCO)CCO)ncnc32)c1,–,"inconclusive: 5.62 µM [activator, single point]"
CN1/C(=C\C(=O)CSc2cccc[n+]2[O-])C(C)(C)c2ccccc21,–,active: 7.08 µM
COc1ccc(CNCc2cc3c(C(C)(C)C)nn(-c4ccccc4)c3[nH]c2=O)cc1,–,"inconclusive: 35.5 µM [inhibitor, single point]"
O=C(COc1ccc([N+](=O)[O-])cc1)N(Cc1ccccc1)Cc1ccccc1,–,"inconclusive: 14.1 µM [activator, single point]"
COc1ccccc1N1CCN(C(=O)CSc2nc3ccccc3c(=O)n2CC2CCCO2)CC1 (stereo not given),inactive: 37.2%,–
O=C(Nc1nnc(SCc2cccc3ccccc23)s1)C1COc2ccccc2O1 (stereo not given),–,"inconclusive: 35.5 µM [inhibitor, single point]"
COc1ccc(C2C3=C(CCCC3=O)Nc3nc(C(F)(F)F)nn32)cc1OC (stereo not given),–,active: 4.47 µM
CC1=C(C)/C(=N\OS(=O)(=O)c2ccccc2)C=CC1=O,–,active: 2.51 µM
Cn1c(CNc2ccccc2O)nc2ccccc21,–,"inconclusive: 22.4 µM [inhibitor, single point]"
COc1cc(NC(=S)NC(=O)c2c(OC)cccc2OC)ccc1NC(=O)c1cccs1,–,"inconclusive: 10 µM [inhibitor, partial curve]"
CN(c1ccccc1)S(=O)(=O)c1cccc(NC(=O)CSc2nncs2)c1,inactive: 36.5%,–
COc1cc(OC)cc(C(=O)N[C@H](C(=O)N2CCc3ccccc32)C(C)C)c1,–,"inconclusive: 5.01 µM [activator, partial curve, poor fit]"
Cc1onc(-c2ccccc2)c1C(=O)c1c[nH]c(C(=O)NCc2ccncc2)c1,inactive: 37.2%,–
CC(C)(C)c1ccc(C(=O)N2CCN(CCNC(=O)C(=O)Nc3ccc(F)cc3)CC2)cc1,inactive: 42.6%,–
Cn1c(CCc2nc3ccccc3[nH]2)n[nH]c1=S,–,"inconclusive: 14.1 µM [activator, partial curve]"
O=S1(=O)[C@H]2C[C@@H]3CC[C@]2(CN1Cc1cccc(F)c1)O3,inactive: 0%,–

Structure (SMILES),"activity change, negative = inhibition",Potency
COc1ccc(C(=O)/C=C/c2ccc(O)cc2)c(O)c1CC=C(C)C,–,active: 3.98 µM
O=C(CCl)Nc1ccccc1C(=O)Nc1ccc2c(c1)OCO2,–,"inconclusive: 20 µM [inhibitor, single point]"
Cc1cccc(C)c1-n1c(C)cc(/C=N/NC(N)=S)c1C,–,active: 0.891 µM
Cc1cc(Cl)ccc1OCCCC(=O)N1CCCc2ccccc21,–,"inconclusive: 35.5 µM [inhibitor, single point]"
CCCS(=O)(=O)n1nc(-c2ccc(C)cc2)cc1N,–,"inconclusive: 4.47 µM [activator, partial curve]"
Cc1cccc(-n2c(N)c(-c3nc4ccccc4n3C)c3nc4ccccc4nc32)c1,–,active: 2.82 µM
C=CCNC(=S)N/N=C1\CCS(=O)(=O)c2ccccc21,–,active: 17.8 µM
COc1ccc(C2CCCN2C(=S)Nc2cccc(C)c2)cc1OC (stereo not given),–,"inconclusive: 17.8 µM [inhibitor, single point]"
Cc1ccc(NCC(=O)NNC2=NCCC2)c(C)c1,–,active: 8.91 µM
CCOc1ccc(S(=O)(=O)Nc2cccc(N(C)S(C)(=O)=O)c2)cc1,inactive: 1.26%,–
COCCN(Cc1cc2cccc(C)c2[nH]c1=O)C(=O)c1ccccc1,inactive: -23.4%,–
CCC(=O)Nc1sc2c(c1C(N)=O)CCC2,–,"inconclusive: 0.112 µM [inhibitor, full curve]"
CCOC(=O)c1sc(NC(=O)CSc2nc3ccccc3o2)c(C(=O)OCC)c1C,–,active: 3.16 µM
CN(C(=O)COc1ccccc1C(=O)NCCOc1ccccc1)c1ccccc1,–,"inconclusive: 5.01 µM [inhibitor, partial curve, poor fit]"
O=c1c(Cl)c(N/N=C/c2ccc(Cl)cc2)cnn1-c1ccccc1,–,"inconclusive: 31.6 µM [activator, single point]"
Cc1c(C(=O)N2CCOCC2)[nH]c2c1C(=O)CC(c1ccc(Cl)cc1)C2 (stereo not given),–,"inconclusive: 8.91 µM [activator, partial curve]"
Cc1ccc(-c2nc(N/N=C/c3cccc([N+](=O)[O-])c3)c3ccccc3n2)cc1,inactive: 6.11%,–
CCOC(=O)Cc1csc(NC(=S)NC(=O)c2ccccc2)n1,–,"inconclusive: 0.891 µM [inhibitor, single point]"
CCSc1nnc(NC(=O)c2nc(-c3ccccc3)n(-c3ccccc3)n2)s1,–,"inconclusive: 17.8 µM [inhibitor, single point]"
COc1ccc2[nH]cc(CCNC(=O)Nc3ccccc3C)c2c1,inactive: 0.601%,–
C/C(=N\Nc1cc(N2CCCCC2)nc(C)n1)c1ccc(Br)cc1,–,"inconclusive: 7.94 µM [inhibitor, partial curve, poor fit]"
Cc1c(C(=O)N(C)C)sc(NC(=O)c2cccc([N+](=O)[O-])c2)c1C#N,–,"inconclusive: 15.8 µM [activator, single point]"

# 4 consecutive entries out of the list so far:
Structure (SMILES),"activity change, negative = inhibition",Potency
C=CCn1c(=NC(=O)c2cc(-c3cccs3)nc3ccccc23)sc2cc(S(N)(=O)=O)ccc21,–,"inconclusive: 17.8 µM [activator, partial curve]"
CCC1Oc2ccc(C)cc2N(CC(=O)NCCN2C(C)CCCC2C)C1=O (stereo not given),–,"inconclusive: 35.5 µM [inhibitor, single point]"
COc1ccccc1N1CCN(/N=C/c2cc(Br)ccc2F)CC1,–,"inconclusive: 15.8 µM [activator, single point]"
CC(C)CCNc1nc(N2CCCC2)c2c(c1C#N)CCN(C)C2,–,"inconclusive: 15.8 µM [inhibitor, single point]"
